Assay results: publication PMC10886541

Protein sequences, listed by entry. Tags and fused reporters are not part of them. Lines headed by an entry give the natural chain unless they say otherwise; changes in a name come on top. Residues count along the entry.
UniProt P41245: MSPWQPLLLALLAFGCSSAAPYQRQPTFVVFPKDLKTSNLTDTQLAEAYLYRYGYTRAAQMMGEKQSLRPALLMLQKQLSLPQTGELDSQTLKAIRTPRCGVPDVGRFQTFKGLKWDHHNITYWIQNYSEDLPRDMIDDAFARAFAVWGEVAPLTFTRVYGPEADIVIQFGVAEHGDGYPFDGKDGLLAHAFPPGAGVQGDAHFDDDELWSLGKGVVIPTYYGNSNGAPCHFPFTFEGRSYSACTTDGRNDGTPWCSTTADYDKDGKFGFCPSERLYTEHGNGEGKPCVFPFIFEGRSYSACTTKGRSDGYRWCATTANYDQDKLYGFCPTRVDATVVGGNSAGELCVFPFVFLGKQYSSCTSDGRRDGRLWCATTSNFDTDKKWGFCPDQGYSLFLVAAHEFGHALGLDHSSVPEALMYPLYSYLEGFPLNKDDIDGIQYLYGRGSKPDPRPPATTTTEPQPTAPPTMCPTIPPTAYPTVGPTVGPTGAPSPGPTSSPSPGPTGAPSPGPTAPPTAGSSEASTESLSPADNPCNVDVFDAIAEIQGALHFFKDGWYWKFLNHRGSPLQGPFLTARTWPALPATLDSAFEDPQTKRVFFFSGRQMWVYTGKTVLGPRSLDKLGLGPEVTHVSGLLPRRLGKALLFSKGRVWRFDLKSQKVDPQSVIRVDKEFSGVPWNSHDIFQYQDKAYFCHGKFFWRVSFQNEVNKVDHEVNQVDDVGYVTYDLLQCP
UniProt P11276, residues 33-2477: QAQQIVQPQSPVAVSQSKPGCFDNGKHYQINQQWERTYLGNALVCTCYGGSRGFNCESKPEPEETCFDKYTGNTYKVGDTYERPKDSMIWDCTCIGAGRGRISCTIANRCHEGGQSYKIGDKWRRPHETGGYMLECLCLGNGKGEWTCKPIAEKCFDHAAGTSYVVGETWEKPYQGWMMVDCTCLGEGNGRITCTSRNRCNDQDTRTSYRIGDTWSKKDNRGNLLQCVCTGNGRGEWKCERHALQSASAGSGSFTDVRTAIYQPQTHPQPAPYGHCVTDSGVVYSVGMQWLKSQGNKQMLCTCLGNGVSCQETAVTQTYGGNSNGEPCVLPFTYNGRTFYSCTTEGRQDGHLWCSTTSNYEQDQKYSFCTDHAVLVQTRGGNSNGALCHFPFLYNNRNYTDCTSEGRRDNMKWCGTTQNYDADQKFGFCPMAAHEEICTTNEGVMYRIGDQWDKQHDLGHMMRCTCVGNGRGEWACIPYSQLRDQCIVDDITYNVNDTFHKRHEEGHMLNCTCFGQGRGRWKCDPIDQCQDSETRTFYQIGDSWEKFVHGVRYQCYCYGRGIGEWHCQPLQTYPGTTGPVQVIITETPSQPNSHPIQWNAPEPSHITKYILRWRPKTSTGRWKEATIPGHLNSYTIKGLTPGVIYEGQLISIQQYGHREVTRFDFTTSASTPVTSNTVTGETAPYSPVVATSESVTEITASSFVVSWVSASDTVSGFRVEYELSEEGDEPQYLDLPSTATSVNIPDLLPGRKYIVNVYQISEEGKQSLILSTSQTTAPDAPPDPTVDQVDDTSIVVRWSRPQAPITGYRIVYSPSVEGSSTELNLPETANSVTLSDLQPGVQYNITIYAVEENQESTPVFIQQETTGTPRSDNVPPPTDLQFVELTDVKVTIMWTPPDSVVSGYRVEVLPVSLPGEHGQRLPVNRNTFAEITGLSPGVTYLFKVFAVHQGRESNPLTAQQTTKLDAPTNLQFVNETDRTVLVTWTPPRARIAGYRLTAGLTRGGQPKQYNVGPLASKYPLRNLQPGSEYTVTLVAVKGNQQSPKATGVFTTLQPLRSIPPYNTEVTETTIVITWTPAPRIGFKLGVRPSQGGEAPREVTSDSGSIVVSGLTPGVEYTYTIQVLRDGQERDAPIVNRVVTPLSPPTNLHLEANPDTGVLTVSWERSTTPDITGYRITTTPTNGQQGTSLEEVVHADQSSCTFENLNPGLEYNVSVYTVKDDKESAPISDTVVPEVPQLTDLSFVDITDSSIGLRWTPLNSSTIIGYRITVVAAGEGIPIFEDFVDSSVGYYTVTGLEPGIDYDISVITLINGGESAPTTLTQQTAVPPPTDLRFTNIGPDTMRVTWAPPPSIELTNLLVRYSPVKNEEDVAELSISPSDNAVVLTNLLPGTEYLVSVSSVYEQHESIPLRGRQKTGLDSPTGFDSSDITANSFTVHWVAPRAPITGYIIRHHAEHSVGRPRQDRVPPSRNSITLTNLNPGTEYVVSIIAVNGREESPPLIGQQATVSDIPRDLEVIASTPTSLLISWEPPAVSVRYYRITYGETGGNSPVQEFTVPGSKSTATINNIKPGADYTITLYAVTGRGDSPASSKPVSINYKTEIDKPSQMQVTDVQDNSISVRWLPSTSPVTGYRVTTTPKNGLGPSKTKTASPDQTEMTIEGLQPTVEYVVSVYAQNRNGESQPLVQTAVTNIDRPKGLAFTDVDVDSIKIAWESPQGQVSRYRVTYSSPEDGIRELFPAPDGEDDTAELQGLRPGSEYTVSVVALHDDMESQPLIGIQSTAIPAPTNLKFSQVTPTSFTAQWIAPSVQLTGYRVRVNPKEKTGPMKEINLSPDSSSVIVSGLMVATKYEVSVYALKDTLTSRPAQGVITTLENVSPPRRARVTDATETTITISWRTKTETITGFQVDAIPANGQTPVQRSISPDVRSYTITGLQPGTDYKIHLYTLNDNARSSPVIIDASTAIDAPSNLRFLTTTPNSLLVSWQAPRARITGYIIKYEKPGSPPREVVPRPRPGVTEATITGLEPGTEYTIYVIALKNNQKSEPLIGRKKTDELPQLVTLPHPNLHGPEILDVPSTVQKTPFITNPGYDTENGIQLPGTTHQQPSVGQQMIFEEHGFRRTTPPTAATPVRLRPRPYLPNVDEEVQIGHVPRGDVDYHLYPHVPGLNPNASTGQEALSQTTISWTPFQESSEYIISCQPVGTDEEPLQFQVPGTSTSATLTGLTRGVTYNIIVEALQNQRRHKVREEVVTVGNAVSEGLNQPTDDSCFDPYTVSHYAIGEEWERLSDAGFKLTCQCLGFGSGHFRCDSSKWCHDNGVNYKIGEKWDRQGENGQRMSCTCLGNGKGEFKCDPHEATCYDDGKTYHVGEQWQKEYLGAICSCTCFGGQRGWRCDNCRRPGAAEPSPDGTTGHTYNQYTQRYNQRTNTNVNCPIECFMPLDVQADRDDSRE

Biological target: matrix metalloprotease (MMP)-9 (mouse (endogenous in J774A.1)) (UniProt P41245)
Assay: affinity purification with mass spectrometry; anti-MMP-9 antibody (ab38898) or mouse IgG1 isotype control on Protein G Dynabeads, incubated overnight at 4 °C with 1.3 mg RIPA lysate of EVs from J774A.1 macrophages infected with S. Typhimurium (MOI 50); washes with 0.05% NP-40, 150 mM NaCl, 50 mM Tris-HCl pH 7.5; on-bead trypsin digest, LC-MS/MS; interactors chosen by MMP-9/IgG log2 ratio > 4

binding: binds
Substance: fibronectin (from UniProt P11276 33-2477)

No constants are given. Whether binding was seen depends on the method and setting. In cells and extracts the contact can be indirect. A yes stands for co-enrichment or nearness to the bait. Other partners may have been found.
